One substance from US20080102477A1 can be followed below.

Sequences of proteins named here, by UniProt entry; tags and fusion partners are left off.
UniProt O60566: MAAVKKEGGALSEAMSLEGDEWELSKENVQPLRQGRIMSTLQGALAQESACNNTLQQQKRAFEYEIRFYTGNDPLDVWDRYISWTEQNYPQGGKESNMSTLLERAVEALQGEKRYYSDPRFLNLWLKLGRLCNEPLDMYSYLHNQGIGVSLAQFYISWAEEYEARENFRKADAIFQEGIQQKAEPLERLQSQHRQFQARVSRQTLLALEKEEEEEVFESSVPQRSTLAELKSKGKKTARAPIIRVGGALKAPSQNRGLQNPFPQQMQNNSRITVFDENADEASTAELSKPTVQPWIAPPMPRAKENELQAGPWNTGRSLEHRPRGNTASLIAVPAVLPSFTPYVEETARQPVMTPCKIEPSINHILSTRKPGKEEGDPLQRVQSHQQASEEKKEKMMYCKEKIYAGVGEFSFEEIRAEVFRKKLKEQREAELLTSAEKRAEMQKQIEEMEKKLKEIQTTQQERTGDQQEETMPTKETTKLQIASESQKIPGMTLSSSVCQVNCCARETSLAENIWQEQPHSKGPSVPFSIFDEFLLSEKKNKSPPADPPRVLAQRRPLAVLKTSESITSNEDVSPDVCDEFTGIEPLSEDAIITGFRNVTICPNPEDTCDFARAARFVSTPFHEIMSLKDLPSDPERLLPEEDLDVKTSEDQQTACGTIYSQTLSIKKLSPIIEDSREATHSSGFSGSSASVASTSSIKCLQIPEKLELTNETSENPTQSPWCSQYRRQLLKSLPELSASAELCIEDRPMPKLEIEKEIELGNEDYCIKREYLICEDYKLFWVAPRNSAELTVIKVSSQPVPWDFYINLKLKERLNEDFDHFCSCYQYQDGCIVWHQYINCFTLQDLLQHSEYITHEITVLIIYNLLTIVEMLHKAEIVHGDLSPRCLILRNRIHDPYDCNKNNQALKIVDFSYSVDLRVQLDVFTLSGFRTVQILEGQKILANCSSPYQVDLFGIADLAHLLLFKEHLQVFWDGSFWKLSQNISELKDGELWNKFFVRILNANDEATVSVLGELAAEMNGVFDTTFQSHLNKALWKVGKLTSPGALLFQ
UniProt P51587: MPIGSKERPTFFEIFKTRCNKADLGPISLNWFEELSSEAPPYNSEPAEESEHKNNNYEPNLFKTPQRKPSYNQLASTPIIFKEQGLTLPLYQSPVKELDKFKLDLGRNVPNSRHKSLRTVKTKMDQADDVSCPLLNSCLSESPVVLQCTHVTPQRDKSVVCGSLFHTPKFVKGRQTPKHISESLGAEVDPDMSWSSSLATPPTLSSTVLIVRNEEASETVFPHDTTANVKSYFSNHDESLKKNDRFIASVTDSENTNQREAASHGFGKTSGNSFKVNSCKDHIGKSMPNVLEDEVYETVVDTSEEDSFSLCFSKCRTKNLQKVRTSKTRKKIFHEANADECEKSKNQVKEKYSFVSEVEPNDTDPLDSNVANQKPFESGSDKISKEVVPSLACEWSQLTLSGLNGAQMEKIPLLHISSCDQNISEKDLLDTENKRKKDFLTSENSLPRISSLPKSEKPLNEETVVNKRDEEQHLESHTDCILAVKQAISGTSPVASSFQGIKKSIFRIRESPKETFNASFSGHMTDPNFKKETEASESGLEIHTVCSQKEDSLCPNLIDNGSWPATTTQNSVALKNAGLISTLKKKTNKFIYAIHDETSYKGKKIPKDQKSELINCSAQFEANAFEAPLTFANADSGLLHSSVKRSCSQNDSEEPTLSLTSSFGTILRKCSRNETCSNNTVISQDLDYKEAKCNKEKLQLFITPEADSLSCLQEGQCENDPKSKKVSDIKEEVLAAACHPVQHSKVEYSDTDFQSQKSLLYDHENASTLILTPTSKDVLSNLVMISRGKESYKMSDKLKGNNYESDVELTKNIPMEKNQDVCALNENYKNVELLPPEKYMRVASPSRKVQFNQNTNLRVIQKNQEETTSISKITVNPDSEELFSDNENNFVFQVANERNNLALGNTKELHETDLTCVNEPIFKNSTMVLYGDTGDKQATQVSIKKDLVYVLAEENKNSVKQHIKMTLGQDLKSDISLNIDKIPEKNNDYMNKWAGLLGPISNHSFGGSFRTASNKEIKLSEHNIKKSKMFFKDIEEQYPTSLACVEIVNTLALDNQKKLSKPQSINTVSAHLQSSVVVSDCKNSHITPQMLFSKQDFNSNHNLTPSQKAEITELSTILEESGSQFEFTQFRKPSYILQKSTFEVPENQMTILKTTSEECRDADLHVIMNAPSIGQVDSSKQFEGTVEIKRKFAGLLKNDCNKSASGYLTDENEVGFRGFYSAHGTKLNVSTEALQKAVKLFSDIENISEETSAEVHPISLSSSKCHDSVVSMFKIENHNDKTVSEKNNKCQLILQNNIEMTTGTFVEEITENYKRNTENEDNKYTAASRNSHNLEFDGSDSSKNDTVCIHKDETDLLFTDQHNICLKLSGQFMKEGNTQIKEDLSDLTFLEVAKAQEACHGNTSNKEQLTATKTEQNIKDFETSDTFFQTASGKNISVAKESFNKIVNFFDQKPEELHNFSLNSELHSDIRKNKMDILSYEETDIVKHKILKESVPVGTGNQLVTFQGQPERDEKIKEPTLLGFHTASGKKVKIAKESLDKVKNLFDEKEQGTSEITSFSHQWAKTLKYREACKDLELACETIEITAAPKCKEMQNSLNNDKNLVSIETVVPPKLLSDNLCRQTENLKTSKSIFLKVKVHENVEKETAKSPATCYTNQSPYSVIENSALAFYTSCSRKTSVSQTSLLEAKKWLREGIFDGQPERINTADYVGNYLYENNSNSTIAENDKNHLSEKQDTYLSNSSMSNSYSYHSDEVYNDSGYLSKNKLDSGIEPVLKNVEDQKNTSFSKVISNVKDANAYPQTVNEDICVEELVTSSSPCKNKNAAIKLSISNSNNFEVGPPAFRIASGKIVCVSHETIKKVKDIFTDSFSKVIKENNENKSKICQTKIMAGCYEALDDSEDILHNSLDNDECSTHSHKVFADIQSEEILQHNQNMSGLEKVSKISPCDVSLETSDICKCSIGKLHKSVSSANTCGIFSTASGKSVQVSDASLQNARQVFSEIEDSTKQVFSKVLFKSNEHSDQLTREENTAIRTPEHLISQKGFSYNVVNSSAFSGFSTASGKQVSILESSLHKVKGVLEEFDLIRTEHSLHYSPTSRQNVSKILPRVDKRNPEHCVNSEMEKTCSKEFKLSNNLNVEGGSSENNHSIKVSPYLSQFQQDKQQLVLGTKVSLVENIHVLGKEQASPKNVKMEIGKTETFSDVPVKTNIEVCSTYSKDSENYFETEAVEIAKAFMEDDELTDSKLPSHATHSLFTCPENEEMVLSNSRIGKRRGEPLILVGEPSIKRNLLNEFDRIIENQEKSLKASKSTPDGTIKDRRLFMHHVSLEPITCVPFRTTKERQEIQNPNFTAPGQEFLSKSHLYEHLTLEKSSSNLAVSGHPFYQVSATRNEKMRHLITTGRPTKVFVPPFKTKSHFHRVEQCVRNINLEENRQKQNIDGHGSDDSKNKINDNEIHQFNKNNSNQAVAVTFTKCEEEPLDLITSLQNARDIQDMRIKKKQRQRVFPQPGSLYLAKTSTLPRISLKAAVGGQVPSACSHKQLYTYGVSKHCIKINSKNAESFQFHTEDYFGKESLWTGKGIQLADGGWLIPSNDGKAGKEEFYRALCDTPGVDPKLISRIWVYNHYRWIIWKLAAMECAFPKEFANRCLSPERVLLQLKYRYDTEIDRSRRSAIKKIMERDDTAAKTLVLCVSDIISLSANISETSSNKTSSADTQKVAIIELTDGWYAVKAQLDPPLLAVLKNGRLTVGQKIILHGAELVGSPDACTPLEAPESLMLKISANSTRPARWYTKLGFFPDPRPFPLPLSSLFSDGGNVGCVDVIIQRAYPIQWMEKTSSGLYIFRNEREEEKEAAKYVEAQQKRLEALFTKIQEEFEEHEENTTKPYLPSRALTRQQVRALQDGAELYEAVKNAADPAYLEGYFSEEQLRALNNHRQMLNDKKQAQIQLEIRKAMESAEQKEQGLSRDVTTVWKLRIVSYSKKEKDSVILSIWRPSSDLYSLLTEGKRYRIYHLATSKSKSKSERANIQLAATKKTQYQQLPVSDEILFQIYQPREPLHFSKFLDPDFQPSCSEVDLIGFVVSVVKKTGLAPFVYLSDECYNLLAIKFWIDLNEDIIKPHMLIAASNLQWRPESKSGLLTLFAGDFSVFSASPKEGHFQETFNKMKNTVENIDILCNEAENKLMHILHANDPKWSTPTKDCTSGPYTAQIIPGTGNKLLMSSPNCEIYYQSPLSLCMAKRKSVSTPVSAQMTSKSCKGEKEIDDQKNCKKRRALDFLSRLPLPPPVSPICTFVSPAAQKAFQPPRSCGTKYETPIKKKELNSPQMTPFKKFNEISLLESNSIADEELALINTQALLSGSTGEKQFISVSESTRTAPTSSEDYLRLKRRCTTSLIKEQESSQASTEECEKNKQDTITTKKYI

The target of test [1] is BubR1 (human) (UniProt O60566). Kind of test: co-immunoprecipitation from 293T total cell lysate: IP with anti-BRCA2, Western blot with anti-BubR1. In general terms: In western blotting, separated proteins are transferred to a membrane and probed.
The target in test [2] is BubR1 (human) (UniProt O60566). Nature of the test: co-immunoprecipitation, Western blot (FIG. 2 legend).

These are yes or no findings as the source states them, for the method shown. Binding seen in cells or lysates may run through a third protein. Some binding calls cover weakened binding; strength is not graded here.

For BRCA2 (from UniProt P51587 1-3418), the binding entry with BubR1 (human) [1] and with BubR1 (human) [2] was “binds” each time.
